According to PMC9557730:
Residue numbers refer to the chain shown, from its start. No constants are given. Whether binding was seen depends on the method and setting. Binding seen in cells or lysates may run through a third protein. Some binding calls cover weakened binding; strength is not graded here. Tags and fused reporters may be left off the sequences shown.

By UniProt entry, the sequences of proteins in these tests, tags left out. Where a name states a change or a piece, a line headed by the entry shows the natural chain unless it says otherwise.
UniProt P50613: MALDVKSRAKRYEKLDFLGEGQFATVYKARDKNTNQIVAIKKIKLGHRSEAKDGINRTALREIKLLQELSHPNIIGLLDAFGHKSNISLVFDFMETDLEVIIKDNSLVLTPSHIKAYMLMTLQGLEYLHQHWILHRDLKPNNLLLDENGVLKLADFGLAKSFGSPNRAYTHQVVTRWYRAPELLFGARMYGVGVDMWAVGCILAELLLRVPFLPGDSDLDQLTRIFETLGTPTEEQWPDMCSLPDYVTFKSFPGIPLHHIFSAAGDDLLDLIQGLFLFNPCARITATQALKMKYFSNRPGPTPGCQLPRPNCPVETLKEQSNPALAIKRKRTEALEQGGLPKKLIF

Columns and labels:
Test in all cases: co-IP; N- or C-terminal 3x FLAG-p52 transfected into HEK293T; nuclear extract (RIPA, benzonase) on FLAG-M2 agarose 3 h at 4 °C; washes 0.5 M and 0.15 M HEGN; FLAG peptide elution; Western blot
[1] = biological target: T1, N-terminal 3×-FLAG-tagged p52 E310F (human) (UniProt Q92759)
T1 sequence: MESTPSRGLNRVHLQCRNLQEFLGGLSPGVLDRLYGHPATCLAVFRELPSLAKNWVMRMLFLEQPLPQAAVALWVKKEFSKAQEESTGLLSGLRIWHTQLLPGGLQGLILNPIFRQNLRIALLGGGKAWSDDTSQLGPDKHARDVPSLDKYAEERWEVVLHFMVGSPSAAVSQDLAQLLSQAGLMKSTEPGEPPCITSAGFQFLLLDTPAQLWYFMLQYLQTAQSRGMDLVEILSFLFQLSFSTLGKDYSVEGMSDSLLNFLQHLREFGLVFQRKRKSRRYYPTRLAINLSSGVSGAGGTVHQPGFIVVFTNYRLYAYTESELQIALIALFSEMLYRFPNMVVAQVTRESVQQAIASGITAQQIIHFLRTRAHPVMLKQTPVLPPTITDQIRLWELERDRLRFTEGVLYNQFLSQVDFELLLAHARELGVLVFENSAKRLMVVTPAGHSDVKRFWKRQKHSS

[2] = biological target: T2, N-terminal 3×-FLAG-tagged p52 YY316+318AA (human) (UniProt Q92759)
T2 sequence: T1 sequence with F310E, Y316A, Y318A

[3] = biological target: T3, C-terminal 3×-FLAG-tagged p52 (human) (UniProt Q92759)
T3 sequence: T1 sequence with F310E

[4] = biological target: T4, N-terminal 3×-FLAG-tagged p52 RF337–338AA (human) (UniProt Q92759)
T4 sequence: T1 sequence with F310E, R337A, F338A

[5] = biological target: T5, N-terminal 3×-FLAG-tagged p52 ER310+314AA (human) (UniProt Q92759)
T5 sequence: T1 sequence with F310A, R314A

[6] = biological target: T6, N-terminal 3×-FLAG-tagged p52 (WT) (human) (UniProt Q92759)
T6 sequence: T1 sequence with F310E

Substance | binding [1] | binding [2] | binding [3] | binding [4] | binding [5] | binding [6]
CDK-activating kinase (CAK) module (from UniProt P50613 1-346; P51946 1-323; P51948 1-309) (complex) | no binding | no binding | no binding | no binding | no binding | no binding
XPD (from UniProt P18074 1-760) | binds | binds |  | binds | binds | binds
